Test results: PMC9888393
Results are given in words; binding and its absence hold for the method and conditions named. In cells and extracts the contact can be indirect. Some entries that bind do so weakly or less than the wild type.

Protein sequences, listed by entry. Tags and fused reporters are not part of them. Residues count along the entry.
UniProt Q9EP73, residues 19-290: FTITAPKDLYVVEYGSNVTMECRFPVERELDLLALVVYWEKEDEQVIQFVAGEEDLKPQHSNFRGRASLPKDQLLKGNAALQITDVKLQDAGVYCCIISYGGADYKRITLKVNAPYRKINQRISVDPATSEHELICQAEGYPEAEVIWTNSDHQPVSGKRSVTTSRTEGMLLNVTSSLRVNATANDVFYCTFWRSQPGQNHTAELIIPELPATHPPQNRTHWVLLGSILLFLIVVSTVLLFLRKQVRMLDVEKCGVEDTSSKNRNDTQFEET
UniProt Q9D4H1: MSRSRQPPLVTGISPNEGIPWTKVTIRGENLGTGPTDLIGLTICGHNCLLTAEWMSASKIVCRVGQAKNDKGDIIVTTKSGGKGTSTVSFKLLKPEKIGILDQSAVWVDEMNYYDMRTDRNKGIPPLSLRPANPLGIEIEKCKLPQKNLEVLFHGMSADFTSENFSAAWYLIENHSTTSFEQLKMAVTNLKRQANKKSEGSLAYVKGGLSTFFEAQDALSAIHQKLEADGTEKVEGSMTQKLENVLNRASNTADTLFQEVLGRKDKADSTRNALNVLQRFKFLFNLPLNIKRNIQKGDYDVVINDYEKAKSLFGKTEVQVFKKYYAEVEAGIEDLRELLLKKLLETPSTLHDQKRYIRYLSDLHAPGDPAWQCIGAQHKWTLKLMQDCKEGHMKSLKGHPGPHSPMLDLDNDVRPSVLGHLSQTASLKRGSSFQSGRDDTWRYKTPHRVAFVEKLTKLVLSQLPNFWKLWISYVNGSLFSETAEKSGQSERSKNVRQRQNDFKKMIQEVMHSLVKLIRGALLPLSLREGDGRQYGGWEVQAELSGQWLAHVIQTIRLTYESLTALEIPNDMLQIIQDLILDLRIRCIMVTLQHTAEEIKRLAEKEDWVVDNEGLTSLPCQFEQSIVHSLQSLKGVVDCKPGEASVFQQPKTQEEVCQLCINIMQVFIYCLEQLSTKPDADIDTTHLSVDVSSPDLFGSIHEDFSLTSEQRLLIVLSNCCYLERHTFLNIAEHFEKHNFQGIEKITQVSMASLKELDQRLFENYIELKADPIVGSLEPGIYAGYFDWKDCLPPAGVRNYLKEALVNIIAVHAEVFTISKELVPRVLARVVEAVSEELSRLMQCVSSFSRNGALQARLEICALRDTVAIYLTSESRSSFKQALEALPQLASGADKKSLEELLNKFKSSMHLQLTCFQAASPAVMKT
UniProt O35382: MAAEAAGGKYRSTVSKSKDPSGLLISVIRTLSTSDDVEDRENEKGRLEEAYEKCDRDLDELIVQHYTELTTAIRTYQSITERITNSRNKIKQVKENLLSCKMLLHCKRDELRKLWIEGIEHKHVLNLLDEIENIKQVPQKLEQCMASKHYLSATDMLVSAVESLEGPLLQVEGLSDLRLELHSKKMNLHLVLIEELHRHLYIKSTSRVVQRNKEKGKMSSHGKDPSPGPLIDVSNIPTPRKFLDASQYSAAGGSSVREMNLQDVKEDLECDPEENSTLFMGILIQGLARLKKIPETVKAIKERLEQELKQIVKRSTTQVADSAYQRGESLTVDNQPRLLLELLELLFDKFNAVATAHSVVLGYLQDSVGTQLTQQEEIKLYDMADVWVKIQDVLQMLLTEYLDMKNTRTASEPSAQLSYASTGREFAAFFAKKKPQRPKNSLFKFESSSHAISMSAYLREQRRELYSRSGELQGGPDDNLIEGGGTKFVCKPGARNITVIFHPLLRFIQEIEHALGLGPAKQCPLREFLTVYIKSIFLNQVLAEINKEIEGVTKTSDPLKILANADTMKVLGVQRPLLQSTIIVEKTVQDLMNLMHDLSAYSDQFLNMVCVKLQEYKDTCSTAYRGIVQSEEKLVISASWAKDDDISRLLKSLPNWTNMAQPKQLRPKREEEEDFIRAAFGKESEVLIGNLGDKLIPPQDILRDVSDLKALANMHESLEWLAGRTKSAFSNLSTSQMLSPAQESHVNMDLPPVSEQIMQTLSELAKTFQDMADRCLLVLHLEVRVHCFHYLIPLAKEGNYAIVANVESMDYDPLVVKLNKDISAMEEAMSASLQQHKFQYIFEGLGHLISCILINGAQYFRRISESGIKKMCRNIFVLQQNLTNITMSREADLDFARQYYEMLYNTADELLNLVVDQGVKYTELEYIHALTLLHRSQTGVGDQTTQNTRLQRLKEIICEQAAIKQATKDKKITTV

B1: RALGDS (protein, UniProt Q03385 1-852)
chain: MMVDCQSSTQEIGEELINGVIYSISLRKVQLHQGATKGQRWLGCENESALNLYETCKVRTVKAGTLEKLVEHLVPAFQGSDLSYVTVFLCTYRAFTTTQQVLDLLFKRYGRCDALTASSRYGCILPYSSEDGGPQDQLKNAISSILGTWLDQYSEDFCQPPDFPCLKQLVAYVQLNMPGSDLERRAHLLLAQLEDLEPSEAESEALSPAPVLSLKPASQLEPALLLTPSQVVTSTPVREPAAAPVPVLASSPVVAPAPELEPVPEPPQEPEPSLALAPELEPAVSQSLELESAPVPTPALEPSWSLPEATENGLTEKPHLLLFPPDLVAEQFTLMDAELFKKVVPYHCLGSIWSQRDKKGKEHLAPTIRATVAQFNNVANCVITTCLGDQSMKAPDRARVVEHWIEVARECRALKNFSSLYAILSALQSNAIHRLKKTWEEVSRDSFRVFQKLSEIFSDENNYSLSRELLIKEGTSKFATLEMNPRRAQRRQKETGVIQGTVPYLGTFLTDLVMLDTAMKDYLYGRLINFEKRRKEFEVIAQIKLLQSACNNYSIAPEEHFGTWFRAMERLSEAESYTLSCELEPPSESASNTLRSKKSTAIVKRWSDRQAPSTELSTSSSAHSKSCDQLRCSPYLGSGDITDALSVHSAGSSSSDVEEINMSFVPESPDGQEKKFWESASQSSPETSGISSASSSTSSSSASTTPVSTTRTHKRSVSGVCSYSSSLPLYNQQVGDCCIIRVSLDVDNGNMYKSILVTSQDKAPTVIRKAMDKHNLDEDEPEDYELVQIISEDHKLKIPENANVFYAMNSTANYDFILKKRTFTKGAKVKHGASSTLPRMKQKGLRIAKGIF
B2: endogenous MIB2 in B16-F10 and MC38 cells (enzyme, UniProt Q8R516 1-973)
chain: MDLDPHAGVQVGMRVVRGMDWKWGQQDGGEGGVGTVVELGRHGSPSTPDRTVVVQWDQGTRTNYRAGYQGAHDLLLYDNAQIGIRHPNIICDCCKKHGLRGMRWKCRVCFDYDLCTQCYMHNKHDLTHAFERYETSHSRPVTLSPRQGLPRIPLRGIFQGAKVVRGPDWEWGSQDGGEGKTGRVVDIRGWDVETGRSVASVTWADGTTNVYRVGHKGKVDLRCVGEAAGGFYYKEHLPKLGKPAELQRRVSADGQPFQRGDKVKCLLDTDVLRDMQEGHGGWNPRMAEFIGQMGTVHRITDRGDVRVQFNHETRWTFHPGALTKHNSFWVGDVVRVIGDLDTVKRLQAGHGEWTDDMAPALGRVGKVVKVFGDGNLRVAVGGQRWTFSPSCLVAYRPEEDANLDVAERARENKSAASVSVAGSLSVALDKLRTQKSDPEHPGRLVVEAALGNVARALDLLRRHPEQASYHPALVVDTKNQGRTALQVAAYLGQVELVRLLLQARASMDLPDDEGNTVLHYTAMGNQPEATRVLLSAGCAVDARNGTRSTALHVAVQRGFLEVVKILCERGCDVNLPDAHADTPLHSAISAGAGASSIVEVLTEVPGIDVTATNSQGFTLLHHASLKGHVLAVRKILARARQLVDAKKEDGFTALHLAALNNHREVAQVLIREGRCDVNVRNRKLQSPLHLAVQQAHLGLVPLLVDAGCSVNTEDEEGDTALHVALQRHQLLPLVADRAGGDPGPLQLLSRLQASGLPGCTELTVGAAVACFLALEGADVSYANHRGRSPLDLATEGRVLKALQGCAQRFRERQAGGGGGVPPGPRHVLSTPNTVTNLHVSGTAGPEAAECLVCSELALLILFSPCQHRTVCEECARRMKKCIRCQVVISKKLRPDGSEVVNAIQVPGPPRQLVEELQSRYRQMEERITCPICIDSHIRLVFQCGHGACAPCGAALNACPICRQPIRDRIQIFV

Key:
[1] = target: endogenous PD-L1 in B16-F10 and MC38 cells (mouse (endogenous in B16-F10 and MC38)) (UniProt Q9EP73); test: co-IP; endogenous PD-L1 with RAB proteins and exocyst components in MC38, B16-F10 and A375 cells, control and MIB2 KO
[2] = target: endogenous PD-L1 in B16-F10 and MC38 cells (mouse (endogenous in B16-F10 and MC38)) (UniProt Q9EP73); test: proximity ligation; in situ PLA of PD-L1 and MIB2 in A375, B16-F10 and MC38 cells
[3] = target: endogenous PD-L1 in B16-F10 and MC38 cells (mouse (endogenous in B16-F10 and MC38)) (UniProt Q9EP73); test: co-IP; endogenous MIB2 and PD-L1 in A375, B16-F10 and MC38 cells

binding [1]	binding [2]	binding [3]	Molecule
binds	–	–	EXOC2 (from UniProt Q9D4H1 1-924)
binds	–	–	EXOC4 (from UniProt O35382 1-975)
binds	–	–	B1
–	binds	binds	B2
